In US6838019B2, “Phosphorescent material and electroluminescent device using thereof” (Ritek Corporation, priority 2001, dated 2005):

Experiment: Relative quantum efficiency test
Type: physicochemical
Settings: dichloromethane solution, optical density 0.5, relative to standard Tb(TMHD)3
Procedure: The quantum efficiencies of Tb(TMHD)3—DMSO, Tb(TMHD)3—MPSO, Tb(TMHD)3—DPSO, Tb(TMHD)3—OPNP are compared with that of the standard Tb(TMHD)3.
An appropriate amount of Tb(TMHD)3—DMSO, Tb(TMHD)3—MPSO, TB(TNHD)3—DPSO, Tb(TMHD)3—OPNP is dissolved in a dichloromethane solvent to a form a diluted solution having an optical density of 0.5 for the UV-VIS absorption (Instrument used: Hitachi UV-Vis spectrophotometer 3010). The fluorescence of the various samples is compared with that of the standard (Instrument used: Hitachi fluorescence spectrophotometer F-4500) and the results are presented in terms relative quantum efficiencies calculated using the relative quantum efficiency formula: (Φs/Φst)=(As/Ast)×(ODst/ODs)×(Qst/Qs)×100% • Φs: fluorescence quantum efficiency of the sample • Φst: fluorescence quantum efficiency of the standard • As: area under the fluorescence spectrum line of the sample • Ast: area under the fluorescence spectrum line of the standard • ODs: degree of absorption of the sample under the maximum wavelength λmax of the UV-VIS spectrum • ODst: degree of absorption of the standard under the maximum wavelength λmax of the UV-VIS spectrum • Qs: number of photons provided to the sample by the fluorescence exciting light source • Qst: number of photons provided to the standard by the fluorescence exciting light source • Under a same intensity of the light source, Qst/Qs is equal to 1 Therefore, under the same intensity of the light source and by obtaining the integrated area and the OD value of the UV-VIS spectrum, the relative quantum efficiency is determined. Table 2 summarizes the relative quantum efficiencies and the maximum wavelengths λ max of the UV-VIS spectrum for the different samples.

Compound | Relative Quantum Efficiency [%]
CC(C)(C)C(=O)C=C([O-])C(C)(C)C.CC(C)(C)C(=O)C=C([O-])C(C)(C)C.CC(C)(C)C(=O)C=C([O-])C(C)(C)C.CS(C)=O.[Tb+3] [Tb(TMHD)3-DMSO, tri(2,2,6,6-tetramethyl-3,5-heptanedionate) Tb(III) dimethyl sulfoxide] | 0.74
CC(C)(C)C(=O)[CH-]C(=O)C(C)(C)C.CC(C)(C)C(=O)[CH-]C(=O)C(C)(C)C.CC(C)(C)C(=O)[CH-]C(=O)C(C)(C)C.[Tb+3] [Tb(TMHD)3, tris(2,2,6,6-tetramethyl-3,5-heptanedionato) Terbium(III), reference compound] | 1.00
CC(C)(C)C(=O)C=C([O-])C(C)(C)C.CC(C)(C)C(=O)C=C([O-])C(C)(C)C.CC(C)(C)C(=O)C=C([O-])C(C)(C)C.CS(=O)c1ccccc1.[Tb+3] [Tb(TMHD)3-MPSO, tri(2,2,6,6-tetramethyl-3,5-heptanedionate) Tb(III) methyl phenyl sulfoxide] | 0.93
CC(C)(C)C(=O)C=C([O-])C(C)(C)C.CC(C)(C)C(=O)C=C([O-])C(C)(C)C.CC(C)(C)C(=O)C=C([O-])C(C)(C)C.O=S(c1ccccc1)c1ccccc1.[Tb+3] [Tb(TMHD)3-DPSO, tri(2,2,6,6-tetramethyl-3,5-heptanedionate) Tb(III) diphenyl sulfoxide] | 1.21
Tris(2,2,6,6-tetramethyl-3,5-heptanedionato) Terbium (III) diphenyl phosphonimide tris-phenyl phosphorane [Tb(TMHD)3-OPNP, reference compound] | 0.67
